# Primary screen of a compound library

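Growth of Mycobacterium tuberculosis over 4 days (cholesterol / DPPC medium with tyloxapol); the read-out is not stated. Concentration: 500 µM. Higher reads as more growth inhibition (inferred: compounds with an IC50 in retests scored well above the rest). About 18,000 compounds were tested under these conditions; 5% (about 900) showed 50% or more at least once.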

Each number is a percent effect as filed. The record does not define 0% and 100%; most values in the screen are far below 50% and negative numbers occur (in some assays of this library far below -100). The compounds are a random part of those screened.

- Cc1nc(C(N)c2ccc(Cl)c(F)c2)no1 (configuration not stated) | 34.21%
- CS(=O)(=O)NC1CCCN(c2nc3ccccc3[nH]2)C1 (configuration not stated) | -3.443%
- CC(C)(C)OC(=O)N1CCN(C(=O)CN)CC1 | -6.769%
- c1ccc(CN2CCC(N3CCCC3)CC2)nc1 | 11.27%
- COc1cccc(CN2CCC3(CC2)OCC(C)O3)c1 (configuration not stated) | 57.39%
- COCC1(C(=O)N2CCCC(CC(N)=O)C2)CCC1 (configuration not stated) | -13%
- CN1CCC(NC(=O)C2CCC2)CC1 | 7.82%
- CNS(=O)(=O)c1ccc(C(=O)N(C)C(C)C(C)(C)C)o1 (configuration not stated) | -6.705%
- CCC(Cn1ccnc1)NC(=O)CCn1cc(C)cn1 (configuration not stated) | 0.1287%
- CCCc1noc(COc2ccccc2C(N)=O)n1 | 4.967%
- COc1ccc(CN2CCCC(N(C)C)CC2)cn1 (configuration not stated) | -26.44%
- COCC(C)C(=O)Nc1ccc2[nH]nnc2c1 (configuration not stated) | -10.27%
- Cc1noc(CS(=O)(=O)CC(=O)N2CCCC(C)C2)n1 (configuration not stated) | 8.881%
- NC1CCN(C(=O)c2ccoc2)CC1 | -3.987%
- COCCN(CC(F)F)C(=O)NCc1ccco1 | -0.3612%
- Cc1cccc(NCC2CCS(=O)(=O)CC2)n1 | -3.694%
- NCC1(O)CCc2ccccc21 (configuration not stated) | 6.969%
- COC(=O)CCNC(=O)c1nc(SC)n2ccccc12 | -20.83%
- CN(Cc1ccsc1)C(=O)c1nccnc1N | 8.644%
- CC(C)N1CCC(CN)C1 (configuration not stated) | -20.07%
- CNC(=O)CCNC(=O)c1sc2ccccc2c1C | 33.93%
- CS(=O)(=O)CC(=O)N(Cc1ccccc1)CC1CCC1 | -0.9913%
- Cc1csc(CCNC(=O)CSCC#N)n1 | -14.7%
- COC(=O)[C@H](C)NC(=O)c1csc(-c2cnccn2)n1 | 4.597%
- O=C(Nc1nncs1)N1CCN(Cc2ccsc2)CC1 | -4.563%
- O=C(C(O)c1ccccc1)N(CCO)Cc1ccsc1 (configuration not stated) | 15.94%
- CC(C)NC(=O)c1ccc2[nH]nnc2c1 | -10.88%
- COc1ccccc1CCC(=O)NCC(C)(C)C(N)=O | 0.01713%
- COc1ccc2cc(CN)ccc2c1 | 5.154%
- CC1=NOC(CNS(=O)(=O)c2cccc(C)c2)C1 (configuration not stated) | -19.99%
- Cc1nc(CN2CCn3ccnc3C2)oc1C | -13.39%
- CC[C@H](C)[C@H](N)C(=O)NCCCc1ccccn1 | -1.394%
- Cc1cccc(C(=O)Nc2ccc(Cl)c(C(N)=O)c2)n1 | -10.21%
- CCOc1ccc(C(=O)NC2CCCCNC2=O)cc1 (configuration not stated) | -15%
- COc1cccc(-c2ncc(CN)s2)c1 | 71.93%
- COCCOCC(=O)N(C)C(C)c1ccncn1 (configuration not stated) | 1.595%
- O=C1c2ccc(F)cc2C(=O)N1c1ccccc1F | -3.658%
- CC(N)c1noc(-c2ccc(Cl)cc2)n1 (configuration not stated) | 60.38%
- O=C1CCOCCN1Cc1noc(-c2ccccc2)n1 | 11.43%
- CC(NC(=O)c1ccc(Br)cc1)C(=O)N1CCOCC1 (configuration not stated) | -3.261%
- CS(=O)(=O)NCCNCc1cc(Cl)ccc1F | 6.64%
- c1cn(CCNC2CCSCC2)cn1 | 25.14%
- CC(C)(C)[S+]([O-])CCNC(=O)Cc1ccco1 (configuration not stated) | -52.16%
- OC(CN1CCOCC12CCCC2)C(F)(F)F (configuration not stated) | 5.879%
- CN(C)S(=O)(=O)c1ccc2c(c1)NCC2 | 6.801%
- Cn1ccsc1=NC(=O)c1ccc(OCC(N)=O)cc1 | 55.56%
- Cc1cc(Br)oc1C(=O)N1CCCN(C)CC1 | 36.42%
- CC(=O)Nc1nc2c(s1)CCCC2 | -7.988%
- c1cnc2ncnc(NC3CCOC3)c2c1 (configuration not stated) | 4.801%
- CN(C)c1nsc(N2CC[C@@]3(O)CCNC[C@H]3C2)n1 | 7.728%
- CSCC(C)(O)CNc1nnnn1-c1ccccc1 (configuration not stated) | 33.78%
- CN(C)S(=O)(=O)CCCN1CCC1c1ccc(F)cc1 (configuration not stated) | 20.18%
- CC(C)N(C)C(=O)CN1CC(Oc2ccc(F)cc2)C1 | 9.778%
- NCCCC1(O)CCC1 | 11.7%
- CCN1CCc2nc(NC(=O)c3ccncc3)sc2C1 | -13.79%
- CCn1cc(COC2CCNC2)cn1 (configuration not stated) | 5.085%
- CN(C(=O)CSc1nnc2ccccn12)C1=CCCC1 | -8.09%
- CN1C(=O)[C@H]2CN(Cc3cccc(Cl)c3F)C[C@H]2C1=O | 19.37%

Repeated from the top, 4 entries:

{"compound": "Cc1nc(C(N)c2ccc(Cl)c(F)c2)no1", "stereo": "configuration not stated", "effect": 34.21}
{"compound": "CS(=O)(=O)NC1CCCN(c2nc3ccccc3[nH]2)C1", "stereo": "configuration not stated", "effect": -3.443}
{"compound": "CC(C)(C)OC(=O)N1CCN(C(=O)CN)CC1", "effect": -6.769}
{"compound": "c1ccc(CN2CCC(N3CCCC3)CC2)nc1", "effect": 11.27}

From ChEMBL document CHEMBL3988442, “University of Dundee, Small-Polar-MMV Screening Library” (2021).